Test results taken from PubChem BioAssay (NCATS).
This list was built around the results that the source calls inconclusive (neither active nor inactive); the mix of calls is not that of the screen. Where the call is inconclusive, the potency comes from a doubtful curve fit. Active and inactive are the calls of the source. Calls follow the shape of the dose curve; as a rule, active = well fitted inhibition curve with a large enough effect; inconclusive = small, poorly fitted or top-dose-only effect, or effect the other way; inactive = flat fitted curve, though single readings scatter.

Sequences of proteins named here, by UniProt entry; tags and fusion partners are left off. A change or cut given only in a name is not applied to a line headed by its entry.
UniProt O15648: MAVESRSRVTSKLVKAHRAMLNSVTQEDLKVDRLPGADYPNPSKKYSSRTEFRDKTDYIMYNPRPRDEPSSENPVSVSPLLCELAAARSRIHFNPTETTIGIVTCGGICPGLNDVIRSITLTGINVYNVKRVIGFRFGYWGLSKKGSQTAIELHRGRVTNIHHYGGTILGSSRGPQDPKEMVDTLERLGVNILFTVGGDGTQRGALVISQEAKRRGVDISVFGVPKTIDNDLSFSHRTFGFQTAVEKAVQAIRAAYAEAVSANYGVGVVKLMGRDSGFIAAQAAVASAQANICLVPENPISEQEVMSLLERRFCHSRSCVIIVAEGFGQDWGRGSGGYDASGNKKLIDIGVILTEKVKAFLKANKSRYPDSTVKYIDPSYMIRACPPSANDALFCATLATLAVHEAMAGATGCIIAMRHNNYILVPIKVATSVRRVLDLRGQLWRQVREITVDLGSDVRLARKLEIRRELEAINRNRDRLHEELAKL

Molecular target: ATP-dependent 6-phosphofructokinase (Trypanosoma brucei brucei) (UniProt O15648)
Assay: qHTS Validation Assay to Find Inhibitors of T. brucei phosphofructokinase (AID 485368)
Conditions: T. brucei PFK enzyme assay, qHTS 7-point titration; activity change, negative = inhibition: at 57.5 µM (top of the series); series mostly up to 57.5 µM
Text: NIH Molecular Libraries Probe Production Network [MLPCN]
NIH Chemical Genomics Center [NCGC]
PI Name: Malcolm Walkinshaw, University of Edinburgh
Various species of the protozoan family Trypanosomatidae are responsible for a range of serious human diseases in tropical and subtropical areas of the world. […] Many of the disorders caused by trypanosomatids are fatal if left untreated, but most currently used drugs are inefficient and toxic.
Oxidative metabolism involving the mitochondrial tricarboxylic acid cycle and oxidative phosphorylation are repressed in these parasites, and recent RNA interference (RNAi) experiments have shown that even partial depletion of certain individual glycolytic enzymes can lead to the death of cultured parasites. One such glycolytic enzyme, phosphofructokinase (PFK), catalyzes the formation of fructose-1,6-bisphosphate (F1,6BP) and ADP from fructose-6-phosphate (F6P) and ATP, and in many metabolic circumstances makes an important contribution to the control of flux through the glycolytic pathway. As a specific glycolytic target, PFK is particularly attractive as it catalyzes the first irreversible step in glycolysis, and structural and kinetic studies have shown very substantial and essential differences from corresponding host enzymes, allowing for the discovery of parasite-selective inhibitors.
The goal of this screen is to find small-molecule inhibitors of T. brucei PFK using a biochemical assay that measures PFK activity as a function of ADP production. A luminescence-based assay for T. brucei PFK activity has been developed which uses luciferase to detect production of ADP. Traditional luciferase-based nucleotide detection reagents rely on ATP production as a direct substrate for the luciferase reaction; however, PFK catalyzes the transfer of a phosphate from ATP to F6P, resulting in the net depletion of ATP. To directly measure the ADP product of the PFK reaction, we used the ADP-Glo detection kit (Promega), which utilizes two separate reactions to 1) deplete all remaining uncatalyzed ATP and 2) convert all remaining ADP to ATP, which is then detected through a traditional luciferase-coupled reaction. Compounds were screened as a concentration-titration series that ranged from 57 uM to 0.7 nM.
NCGC Assay Protocol Summary:
Substrate buffer was dispensed into white, solid 1536-well plates at 3uL/well in 0.1M triethanolamine (TEA) buffer, pH 8.0, containing final concentrations of 5 mM MgCl2, 0.01% Tween20, 0.5 mM fructose-6-phosphate (F6P) and 0.1mM ATP. Then, 23 nL of compounds or DMSO were delivered to each well using a pin tool. One uL T. brucei PFK (0.1M TEA, 0.01% Tween20, 0.1% bovine serum albumin (BSA) and 1.25nM PFK, final concentrations) was then dispensed, and plates were incubated at room temperature for 45 min. The luminescent detection reagent, ADP-Glo (Promega), was then added in two steps: the first reagent, ADP-Glo (which converts remaining uncatalyzed ATP), was added at 2.5uL/well and incubated for ten minutes at room temperature, and the second component, Kinase Detection reagent (which converts ADP to ATP as a substrate for luciferase-based luminescence), was added immediately after at 5uL/well, followed by one final ten minute room temperature incubation. The plates were measured on a ViewLux plate reader for luminescent signal using a clear filter with a one second exposure. The %Activity was determined from the corrected luminescence values. As no specific T. brucei PFK inhibitors have been identified in the literature, 1x (1.25nM) and 0x PFK enzyme controls (untreated) were included to normalize %Activity of identified inhibitors; 0x enzyme values corresponded to 100%Activity (full inhibition), while 1x PFK enzyme values were used to normalize 0%Activity (no inhibition).
Concentration-response curves were fitted to the signals arising from the resulting luminescence. […]
Potency is read from the fitted curve at half-maximal effect.

SMILES | Potency | activity change, negative = inhibition | outcome
O=C1CCc2cc(OCCCCc3nnnn3C3CCCCC3)ccc2N1 | inconclusive: 7.57 µM [falling, full curve] | – | –
CC(=O)N[C@@H](CS)C(=O)O | – | inactive: 8.77% | –
CC(C)N(CCC(=O)c1ccc2ccccc2c1)Cc1ccccc1 | active: 13.5 µM | – | –
COc1ccc(CN(CCN(C)C)c2ccccn2)cc1 | – | – | inactive
Nc1ncnc2c1ncn2[C@@H]1O[C@H](CO)[C@@H](O)[C@H]1O | – | – | inactive
CCCNC(=O)NS(=O)(=O)c1ccc(Cl)cc1 | inconclusive: 10.7 µM [activator, partial curve, poor fit] | – | –
O=C(NCCN1CCOCC1)c1ccc(Cl)cc1 | – | – | inactive
CCCCNc1c(C(=O)OCC)c(C)nc2c1cnn2CC | inconclusive: 37.9 µM [activator, single point] | – | –
Brc1ccc([C@H]2CN3CCSC3=N2)cc1 | – | inactive: -16.5% | –
C[C@@H]1C(=O)NC2=Nc3cccc(Cl)c3CN21 | inconclusive: 37.9 µM [activator, single point] | – | –
Cc1scc2c1N(C(=O)CN1CCN(C)CC1)c1ccccc1NC2=O | inconclusive: 0.757 µM [activator, full curve, poor fit] | – | –
C[C@]12CC[C@@H]3c4ccc(O)cc4CC[C@H]3[C@@H]1CC[C@@H]2O | – | – | inactive
C=CCc1ccccc1OCC(O)CNC(C)C (stereo not drawn) | – | inconclusive: -2.42% | –
CCOC(=O)c1cnc2c(cnn2CC)c1NN=C(C)C | – | – | inactive
C[C@]12CCC(=O)C=C1CC[C@@H]1[C@@H]2CC[C@@]2(C)[C@H]1CC[C@]2(O)C(=O)CO | – | – | inactive
CC(=O)[C@H]1CC[C@H]2[C@@H]3CCC4=CC(=O)CC[C@]4(C)[C@H]3CC[C@]12C | – | – | inactive
Clc1ccc(Cn2c(CN3CCCC3)nc3ccccc32)cc1 | inconclusive: 8.49 µM [falling, single point] | – | –

SMILES | Potency | activity change, negative = inhibition | outcome
CN(C)CC/C=C1\c2ccccc2COc2ccccc21 | inconclusive: 0.849 µM [activator, full curve, poor fit] | – | –
CN/C(=C\[N+](=O)[O-])NCCSCc1ccc(CN(C)C)o1 | inconclusive: 37.9 µM [activator, single point] | – | –
COc1ccc2c(c1OC)C(=O)O[C@@H]2[C@H]1c2c(cc3c(c2OC)OCO3)CCN1C | – | – | inactive
CCOC(=O)C1=C(C)NC(C)=C(C(=O)OC)C1c1cccc(Cl)c1Cl (stereo not drawn) | – | – | inactive
CC(C)(Oc1ccc(CCNC(=O)c2ccc(Cl)cc2)cc1)C(=O)O | – | inactive: 13% | –
Cc1cn[nH]c1 | inconclusive: 37.9 µM [activator, single point] | – | –
N=c1nc(N2CCCCC2)cc(N)n1O | inconclusive: 23.9 µM [activator, single point] | – | –
CC(N)C(=O)OC(C)(C)Cc1ccc(Cl)cc1 (stereo not drawn) | inconclusive: 8.49 µM [activator, single point] | – | –
CCn1ccnc1CC1COc2ccccc2O1 (stereo not drawn) | inconclusive: 42.6 µM [activator, partial curve] | – | –
CCNC(=O)N1CCN(CCCC(c2ccc(F)cc2)c2ccc(F)cc2)CC1 | – | – | inactive
CCNC(=O)[C@H]1O[C@@H](n2cnc3c(N)nc(NCCc4ccc(CCC(=O)O)cc4)nc32)[C@H](O)[C@@H]1O | inconclusive: 37.9 µM [activator, partial curve, poor fit] | – | –
Nc1cc(=O)[nH]c(N)n1 | inconclusive: 0.757 µM [activator, full curve, poor fit] | – | –
O=C(O)CN(CCN(CC(=O)O)CC(=O)O)CCN(CC(=O)O)CC(=O)O | inconclusive: 0.426 µM [activator, full curve] | – | –
CCCCC1C(=O)N(c2ccccc2)N(c2ccccc2)C1=O | inconclusive: 0.006 µM [activator, full curve, poor fit] | – | –
O=C(O)COCCN1CCN(C(c2ccccc2)c2ccc(Cl)cc2)CC1 (stereo not drawn) | inconclusive: 37.9 µM [falling, single point] | – | –
N[C@H](CO)C(=O)O | – | – | inactive

9 entries from above, set out differently:
SMILES,Potency,"activity change, negative = inhibition",outcome
CC(C)(Oc1ccc(CCNC(=O)c2ccc(Cl)cc2)cc1)C(=O)O,–,inactive: 13%,–
Cc1cn[nH]c1,"inconclusive: 37.9 µM [activator, single point]",–,–
N=c1nc(N2CCCCC2)cc(N)n1O,"inconclusive: 23.9 µM [activator, single point]",–,–
CC(N)C(=O)OC(C)(C)Cc1ccc(Cl)cc1 (stereo not drawn),"inconclusive: 8.49 µM [activator, single point]",–,–
CCn1ccnc1CC1COc2ccccc2O1 (stereo not drawn),"inconclusive: 42.6 µM [activator, partial curve]",–,–
CCNC(=O)N1CCN(CCCC(c2ccc(F)cc2)c2ccc(F)cc2)CC1,–,–,inactive
CCNC(=O)[C@H]1O[C@@H](n2cnc3c(N)nc(NCCc4ccc(CCC(=O)O)cc4)nc32)[C@H](O)[C@@H]1O,"inconclusive: 37.9 µM [activator, partial curve, poor fit]",–,–
Nc1cc(=O)[nH]c(N)n1,"inconclusive: 0.757 µM [activator, full curve, poor fit]",–,–
O=C(O)CN(CCN(CC(=O)O)CC(=O)O)CCN(CC(=O)O)CC(=O)O,"inconclusive: 0.426 µM [activator, full curve]",–,–
